Reference: PubChem BioAssay AID1508600 (Functional Genomics Laboratory (NCATS/FGL), 2020)
The whole screen tested about 53,000 sequences, of which about 3,700 (7%) were called active.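 The calls were made as follows: active = gene knockdowns whose robust z-score for IL-1 alpha signal is at least 2 or at most -2, so actives lie on both sides; inactive = the rest.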 The list shows a part of the results.

Test: Components of the Cytosolic LPS Sensing Pathway: Gene Identification via Genome-wide siRNA Screen;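 also: robust z of the log signal after scaling to non-targeting control siRNA wells of the plate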
Conditions: RAW264.7 macrophages, IL-1a HTRF, actives lie on both sides, screened at 100 nM (by protocol), cells primed 5 h with Pam3CSK4 first
Procedure, shortened: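 Supernatant IL-1a by HTRF from RAW264.7 cells primed with Pam3CSK4 (5 hours) and transfected with LipidA (24 hour) after 48h siRNA knockdown at 100 nM; cell viability checked with CellTiter-Glo.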

Row | Sequence | z-score
1 | GGAAUGUGAAGAGGGCUUUTT against Olfr1341 | inactive: 1.4
2 | GUCCAUCAGCAGCUCAAUGTT against Ifna5 | inactive: -0.655
3 | CGUAUUCCCUAGUUUCAGATT against Kir3dl2 | inactive: -0.753
4 | GGAAUUCAGGAGUCUCUUUTT against Elavl4 | inactive: -0.226
5 | GCCAGGAAUGCUAUUCUCGTT against Lrg1 | active: -2.26
6 | CGGAUAGUGAAAUCGCUCUTT against Copz1 | inactive: -0.00672
7 | GGCAUGACAUGUAGAUGGCTT against Aldh3b3 | active: 2.17
8 | GGAGAUUCGGACAAAGUGATT against Rhcg | inactive: -1.31
9 | CCCAAUAAUGAGAAGCGGCTT against Sh2d1b2 | inactive: -0.071
10 | GGAAACCAAUAACUGUUUATT against C130073F10Rik | inactive: 0.501
11 | GGCAUCGAUUACAUAAGUUTT against Oxr1 | inactive: 0.252
12 | CCAAAUUAACAGGGCUUUGTT against Poglut1 | inactive: 0.452
13 | GGAAGAGAAGCUGAACAAGTT against Gja1 | active: 2.53
14 | GGUGGCCUUACAAAUGCCATT against Dph1 | inactive: 0.923
15 | GGUGUUGUUUUACUUCUGUTT against Timp2 | inactive: -0.24
16 | GGAACAGAGCCUUUCUCAGTT against Rnf183 | inactive: -0.153
17 | GGAAGUUCAAAUUUGAAUGTT against Etaa1 | inactive: -0.757
18 | GGAGUAGUGUUGGAUAUAUTT against Mpv17l | inactive: 1.73
19 | AUGGACAGGACUUAGAUUCTT against Gm20815 | inactive: 0.198
20 | CCAAAGUAAACUGGAUGUUTT against Jaml | inactive: 0.484
21 | CCGCUCCGAACCAAGAAGATT against Tulp1 | inactive: -0.00342
22 | GCCAUUAACUAUGGGACCUTT against Lck | inactive: -0.0729
23 | GGGAUACAGAUGUAUGAGUTT against Wdr54 | inactive: -1.19
24 | GGAGCGAGAAGCUUUAGAATT against Ubxn1 | inactive: 0.61
25 | GCUGAUUCCGUGUCCCAACTT against Gng2 | active: 3.42
26 | GCUGGUCAGAGAUUUUGAUTT against Vti1b | inactive: 0.202
27 | GGAUGAUCGGCACUAUAACTT against Otulin | inactive: 1.81

Row | Sequence | z-score
28 | GGAGAGUAUCAGCAAUGAATT against Impg2 | inactive: 1.02
29 | GGCUACCAUAGGUUUUAAUTT against Serinc4 | inactive: 0.946
30 | GGAAUCCUUACAUCGCCCATT against Olfr669 | inactive: 0.0491
31 | GGGUCUCCAAUCCCUCAGUTT against Kir3dl2 | inactive: 0.489
32 | GGCAGACAACUUCUACCAATT against Crim1 | active: 2.52
33 | GGUACACCUUGUUGGAAUUTT against Eif5a2 | inactive: 0.707
34 | GGUAUUUCUUUGUGGUGCUTT against Ptch2 | inactive: 1.45
35 | GGUGGGCUUUCAGUGCUACTT against Plppr3 | inactive: 1.98
36 | GGACAAAGAAGGCAAGCAUTT against Mecp2 | inactive: 1.1
37 | GGAUCCUCAGAUGAGUAUGTT against Ror1 | inactive: -0.694
38 | CCUUUAAAAGUACCAACCCTT against B9d1 | inactive: 0.679
39 | GCCACUAGUAUUAUGCUUCTT against Fhit | inactive: 0.569
40 | GGCUACAUGAGCUGGAGAATT against Insr | active: 2.71
41 | GGAGAGAAAAACUUCUGGUTT against Nfx1 | inactive: 0.625
42 | CCAGCUGGCAAGGUUAUGATT against Akap8 | inactive: 1.22
43 | GGAGAAAUCAAGCAAAGAUTT against Soat1 | inactive: -0.0846
44 | GAGUGUGCAUUUUGUUAGUTT against Olfr136 | inactive: 0.763
45 | GGAGGAAAAAAGGAUCCUGTT against Map3k2 | inactive: 0.101
46 | GCAUGGUAUUAGAUGAUGATT against Nexn | inactive: -1.69
47 | GGAUUCACACCGUGAAGGUTT against Rfesd | inactive: 0.0665
48 | GUCCUCUUCUGGUUCUCAGTT against Vmn1r52 | inactive: 0.246
49 | GUGACCUCAUCCAGAAAAUTT against Vmn1r190-ps | inactive: -0.613
50 | GCAGGUGACGUGAGGUUAATT against Zfp276 | inactive: -0.121
51 | GUGCCACGACGGUUUUUUCTT against Avp | inactive: -1.85
52 | GCAAGUAAGACGGAACCCUTT against Ddx28 | inactive: 0.783
53 | CCUGUUAUGACCGUUCAUGTT against Prpf4 | inactive: 0.551

Quoted at random: 2 records from the list.
Row | Sequence | z-score
49 | GUGACCUCAUCCAGAAAAUTT against Vmn1r190-ps | inactive: -0.613
9 | CCCAAUAAUGAGAAGCGGCTT against Sh2d1b2 | inactive: -0.071
